Data: patent US12102089B2, “Method for inactivating mold spores” (DSM IP ASSETS B.V., priority 2017, dated 2024)
Further values from the same series stand in other lists.

System: Paecilomyces variotti (ATCC 22319)
Test: Heat treatment of Paecilomyces variotti spores in ice tea with natamycin, visual growth
Assay type: cell-based
Parameters: key: growth (+); no growth (−)
Method: Commercially available ice tea (Lipton, peach flavor, non-carbonated, 1.5 L) was adjusted to high water hardness by adding 1 ml of a solution of 39 g CaCl2 and 27 g MgCl2 added to 934 g water. ⅓ of this ice tea preparation (the pH of which was 3.15) was left as-such, ⅓ of the preparation was enriched with 5 ppm natamycin and ⅓ of the preparation was enriched with 10 ppm natamycin. Samples of 5 ml were made from each preparation in 15 ml sterile plastic tubes. Of each preparation 8 samples were pre-heated to the desired pasteurization temperature using a water bath. Temperatures used were RT, 60, 65, 70, 75, 80, 85 and 90° C. When the desired temperature was reached, 100 μl of a 2500 spores/ml spore suspension of Aspergillus niger ATCC 9029AA was added to each tube. Subsequently, the samples were kept for 30 seconds at the temperature in question in the water bath. Next, the samples were cooled on ice to a temperature of 25° C. Samples were incubated at 25° C. and visually examined for growth (formation of mold flakes or turbidity) for two months. Additionally, samples were enumerated according to ISO protocol 21527-1.2008 on day 0 (before heat treatment) and day 1 (after heat treatment) to count immediate loss of viability. […] For the results, see Table 1. […] Example 1 was repeated however with Paecilomyces variotti (ATCC 22319, 1000 spores/ml) instead of Aspergillus niger.

In the case of `C[C@@H]1C/C=C/C=C/C=C/C=C/[C@H](O[C@@H]2O[C@H](C)[C@@H](O)[C@H](N)[C@@H]2O)C[C@@H]2O[C@](O)(C[C@@H](O)C[C@H]3O[C@@H]3/C=C/C(=O)O1)C[C@H](O)[C@H]2C(=O)O` [natamycin], the “growth (+) or no growth (−)” value (T 85, natamycin 5 ppm, day 15) is reported as “−”, the “growth (+) or no growth (−)” value (T 85, natamycin 5 ppm, day 16) is reported as “−” and the “growth (+) or no growth (−)” value (T 85, natamycin 5 ppm, day 17) is reported as “−”. For the same compound, the “growth (+) or no growth (−)” value (T 85, natamycin 5 ppm, day 50) was “−”, the “growth (+) or no growth (−)” value (T 85, natamycin 10 ppm, day 1) was “−” and the “growth (+) or no growth (−)” value (T 85, natamycin 10 ppm, day 2) was “−”. For the same compound, the “growth (+) or no growth (−)” value (T 85, natamycin 10 ppm, day 3) was “−”, the “growth (+) or no growth (−)” value (T 85, natamycin 10 ppm, day 4) was “−” and the “growth (+) or no growth (−)” value (T 85, natamycin 10 ppm, day 5) was “−”. The “growth (+) or no growth (−)” value (T 85, natamycin 10 ppm, day 6) was “−”, the “growth (+) or no growth (−)” value (T 85, natamycin 10 ppm, day 7) was “−” and the “growth (+) or no growth (−)” value (T 85, natamycin 10 ppm, day 8) was “−”. The “growth (+) or no growth (−)” value (T 85, natamycin 10 ppm, day 9) was “−”, the “growth (+) or no growth (−)” value (T 85, natamycin 10 ppm, day 10) was “−” and the “growth (+) or no growth (−)” value (T 85, natamycin 10 ppm, day 11) was “−”. For the same compound, the “growth (+) or no growth (−)” value (T 85, natamycin 10 ppm, day 12) was “−”, the “growth (+) or no growth (−)” value (T 85, natamycin 10 ppm, day 13) was “−” and the “growth (+) or no growth (−)” value (T 85, natamycin 10 ppm, day 14) was “−”. The “growth (+) or no growth (−)” value (T 85, natamycin 10 ppm, day 15) was “−”, the “growth (+) or no growth (−)” value (T 85, natamycin 10 ppm, day 16) was “−” and the “growth (+) or no growth (−)” value (T 85, natamycin 10 ppm, day 17) was “−”. The “growth (+) or no growth (−)” value (T 85, natamycin 10 ppm, day 50) was “−”, the “growth (+) or no growth (−)” value (T 90, natamycin 5 ppm, day 1) was “−” and the “growth (+) or no growth (−)” value (T 90, natamycin 5 ppm, day 2) was “−”. The “growth (+) or no growth (−)” value (T 90, natamycin 5 ppm, day 3) was “−”, the “growth (+) or no growth (−)” value (T 90, natamycin 5 ppm, day 4) was “−” and the “growth (+) or no growth (−)” value (T 90, natamycin 5 ppm, day 5) was “−”. The “growth (+) or no growth (−)” value (T 90, natamycin 5 ppm, day 6) was “−”, the “growth (+) or no growth (−)” value (T 90, natamycin 5 ppm, day 7) was “−” and the “growth (+) or no growth (−)” value (T 90, natamycin 5 ppm, day 8) was “−”. The “growth (+) or no growth (−)” value (T 90, natamycin 5 ppm, day 9) was “−”, the “growth (+) or no growth (−)” value (T 90, natamycin 5 ppm, day 10) was “−” and the “growth (+) or no growth (−)” value (T 90, natamycin 5 ppm, day 11) was “−”. The “growth (+) or no growth (−)” value (T 90, natamycin 5 ppm, day 12) was “−”, the “growth (+) or no growth (−)” value (T 90, natamycin 5 ppm, day 13) was “−” and the “growth (+) or no growth (−)” value (T 90, natamycin 5 ppm, day 14) was “−”. For the same compound, the “growth (+) or no growth (−)” value (T 90, natamycin 5 ppm, day 15) was “−”, the “growth (+) or no growth (−)” value (T 90, natamycin 5 ppm, day 16) was “−” and the “growth (+) or no growth (−)” value (T 90, natamycin 5 ppm, day 17) was “−”. For the same compound, the “growth (+) or no growth (−)” value (T 90, natamycin 5 ppm, day 50) was “−”, the “growth (+) or no growth (−)” value (T 90, natamycin 10 ppm, day 1) was “−” and the “growth (+) or no growth (−)” value (T 90, natamycin 10 ppm, day 2) was “−”. The “growth (+) or no growth (−)” value (T 90, natamycin 10 ppm, day 3) was “−”, the “growth (+) or no growth (−)” value (T 90, natamycin 10 ppm, day 4) was “−” and the “growth (+) or no growth (−)” value (T 90, natamycin 10 ppm, day 5) was “−”. The “growth (+) or no growth (−)” value (T 90, natamycin 10 ppm, day 6) was “−”, the “growth (+) or no growth (−)” value (T 90, natamycin 10 ppm, day 7) was “−” and the “growth (+) or no growth (−)” value (T 90, natamycin 10 ppm, day 8) was “−”. For the same compound, the “growth (+) or no growth (−)” value (T 90, natamycin 10 ppm, day 9) was “−”, the “growth (+) or no growth (−)” value (T 90, natamycin 10 ppm, day 10) was “−” and the “growth (+) or no growth (−)” value (T 90, natamycin 10 ppm, day 11) was “−”. The “growth (+) or no growth (−)” value (T 90, natamycin 10 ppm, day 12) was “−”, the “growth (+) or no growth (−)” value (T 90, natamycin 10 ppm, day 13) was “−” and the “growth (+) or no growth (−)” value (T 90, natamycin 10 ppm, day 14) was “−”. For the same compound, the “growth (+) or no growth (−)” value (T 90, natamycin 10 ppm, day 15) was “−”, the “growth (+) or no growth (−)” value (T 90, natamycin 10 ppm, day 16) was “−” and the “growth (+) or no growth (−)” value (T 90, natamycin 10 ppm, day 17) was “−”. For the same compound, the “growth (+) or no growth (−)” value (T 90, natamycin 10 ppm, day 50) was “−”, the “growth (+) or no growth (−)” value (T RT, natamycin 5 ppm, day 1) was “−” and the “growth (+) or no growth (−)” value (T RT, natamycin 5 ppm, day 2) was “−”. For the same compound, the “growth (+) or no growth (−)” value (T RT, natamycin 5 ppm, day 3) was “−”, the “growth (+) or no growth (−)” value (T RT, natamycin 5 ppm, day 4) was “−” and the “growth (+) or no growth (−)” value (T RT, natamycin 5 ppm, day 5) was “−”. For the same compound, the “growth (+) or no growth (−)” value (T RT, natamycin 5 ppm, day 6) was “−”, the “growth (+) or no growth (−)” value (T RT, natamycin 5 ppm, day 7) was “−” and the “growth (+) or no growth (−)” value (T RT, natamycin 5 ppm, day 8) was “−”. For the same compound, the “growth (+) or no growth (−)” value (T RT, natamycin 5 ppm, day 9) was “−”, the “growth (+) or no growth (−)” value (T RT, natamycin 5 ppm, day 10) was “+” and the “growth (+) or no growth (−)” value (T RT, natamycin 5 ppm, day 11) was “+”. The “growth (+) or no growth (−)” value (T RT, natamycin 5 ppm, day 12) was “+”, the “growth (+) or no growth (−)” value (T RT, natamycin 5 ppm, day 13) was “+” and the “growth (+) or no growth (−)” value (T RT, natamycin 5 ppm, day 14) was “+”. For the same compound, the “growth (+) or no growth (−)” value (T RT, natamycin 5 ppm, day 15) was “+”, the “growth (+) or no growth (−)” value (T RT, natamycin 5 ppm, day 16) was “+” and the “growth (+) or no growth (−)” value (T RT, natamycin 5 ppm, day 17) was “+”. For the same compound, the “growth (+) or no growth (−)” value (T RT, natamycin 5 ppm, day 50) was “+”, the “growth (+) or no growth (−)” value (T RT, natamycin 10 ppm, day 1) was “−” and the “growth (+) or no growth (−)” value (T RT, natamycin 10 ppm, day 2) was “−”. The “growth (+) or no growth (−)” value (T RT, natamycin 10 ppm, day 3) was “−”, the “growth (+) or no growth (−)” value (T RT, natamycin 10 ppm, day 4) was “−” and the “growth (+) or no growth (−)” value (T RT, natamycin 10 ppm, day 5) was “−”. For the same compound, the “growth (+) or no growth (−)” value (T RT, natamycin 10 ppm, day 6) was “−”, the “growth (+) or no growth (−)” value (T RT, natamycin 10 ppm, day 7) was “−” and the “growth (+) or no growth (−)” value (T RT, natamycin 10 ppm, day 8) was “−”. For the same compound, the “growth (+) or no growth (−)” value (T RT, natamycin 10 ppm, day 9) was “−”, the “growth (+) or no growth (−)” value (T RT, natamycin 10 ppm, day 10) was “−” and the “growth (+) or no growth (−)” value (T RT, natamycin 10 ppm, day 11) was “+”. For the same compound, the “growth (+) or no growth (−)” value (T RT, natamycin 10 ppm, day 12) was “+”, the “growth (+) or no growth (−)” value (T RT, natamycin 10 ppm, day 13) was “+” and the “growth (+) or no growth (−)” value (T RT, natamycin 10 ppm, day 14) was “+”. The “growth (+) or no growth (−)” value (T RT, natamycin 10 ppm, day 15) was “+”, the “growth (+) or no growth (−)” value (T RT, natamycin 10 ppm, day 16) was “+” and the “growth (+) or no growth (−)” value (T RT, natamycin 10 ppm, day 17) was “+”. For the same compound, the “growth (+) or no growth (−)” value (T RT, natamycin 10 ppm, day 50) was “+”.
